One compound from patent publication US10973840B2, “Methods of sensitizing tumor cells to weak base chemotherapeutic drugs” (SOCPRA SCIENCES SANTÉ ET HUMAINES S.E.C., priority 2017, dated 2021) can be followed below.

One data set deals with MDA-MB-231 cells. In words: Intracellular localization of Dox by confocal live-cell imaging, MDA-MB-231. Format: cell-based, human. As to conditions: for sequestration of Dox within endosomes: MDA-MB-231, normoxic. The method, then:
(§1) Cells were cultured in 25 mm-diameter glass coverslips (Thermo Fisher Scientific) and incubated under various conditions (as indicated in the FIG. legends). Cells were then incubated for 2 h in a medium containing Dox (2 μM). After the incubation period, cells were washed to remove excess Dox and left in drug-free media for 10 min. […] Coverslips were mounted on glass slides and placed on a 37° C. warmed stage of an Olympus Fluoview™ FV1000 (Olympus, Tokyo, Japan) confocal laser scanning microscope. Dox was excited with a green helium neon laser (543 nm) and emitted fluorescence intensity was measured. Images were acquired on the same day, typically from 10-20 cells of similar size from each experimental condition, using identical instrument settings.

Another data set deals with HT-1080 cells. In words: Intracellular localization of Dox by confocal live-cell imaging, HT-1080. Format: cell-based, human. As to conditions: for sequestration of Dox within endosomes: HT-1080, normoxic. On the procedure: as §1

`COc1cccc2c1C(=O)c1c(O)c3c(c(O)c1C2=O)C[C@@](O)(C(=O)CO)C[C@@H]3O[C@H]1C[C@H](N)[C@H](O)[C@H](C)O1` [Dox, doxorubicin]: the “Dox localization in the nucleus” value was “significantly decreased” in the data set on MDA-MB-231 cells (MDA-MB-231, hypoxia (1% O2) vs normoxia) and “significantly decreased” in the data set with HT-1080 cells (HT-1080, hypoxia (1% O2) vs normoxia). The Dox localization entry with MDA-MB-231 cells (MDA-MB-231, normoxia (21% O2)) is “predominant accumulation of Dox in the nucleus”; in the data set with HT-1080 cells (HT-1080, normoxia (21% O2)) it was “predominant accumulation of Dox in the nucleus”. In addition, the “sequestration of Dox within endosomes” value with MDA-MB-231 cells (shNHE6) is reported as roughly 74%; in the data set on MDA-MB-231 cells (shScrambled) it was roughly 10%; in the data set on HT-1080 cells (shNHE6), roughly 45%; in the data set with HT-1080 cells (shScrambled), roughly 20%. In the data set on HT-1080 cells (HT-1080, media of different pHs, 4 h, effect of extracellular acidification), the “uptake of Dox (nuclear fluorescence intensity)” value is “reduces the uptake of Dox”.
